PMC6707942
Results are given in words; binding and its absence hold for the method and conditions named. In cells and extracts the contact can be indirect. Binding calls can cover weak binding; strength is not graded here. Tags and fused reporters may be left off the sequences shown.

Target: clathrin heavy chain (human (endogenous in DU-145))
Assay: proximity ligation; DU-145 cells treated with His-MDA-7/IL-24 for 30 min, fixed; Duolink PLA kit; primary antibodies (anti-MDA-7/IL-24 and anti-clathrin or anti-caveolae) overnight at 4 °C; signals seen by fluorescence microscope; only the binder purified

B1: His-tagged recombinant MDA-7/IL-24 (ligand, UniProt Q13007 52-206)
chain: QEFHFGPCQVKGVVPQKLWEAFWAVKDTMQAQDNITSARLLQQEVLQNVSDAESCYLVHTLLEFYLKTVFKNYHNRTVEVRTLKSFSTLANNFVLIVSQLQPSQENEMFSIRDSAHRRFLLFRRAFKQLDVEAALTKALGEVDILLTWMQKFYKL
For B1, the binding was “binds”.
